The record followed here is PMC8075378.

Sequences of proteins named here, by UniProt entry; tags and fusion partners are left off. A change or cut given only in a name is not applied to a line headed by its entry. A line that says so, or that is headed by a name, gives the form on record, which may keep a tag or linker.
UniProt Q60610: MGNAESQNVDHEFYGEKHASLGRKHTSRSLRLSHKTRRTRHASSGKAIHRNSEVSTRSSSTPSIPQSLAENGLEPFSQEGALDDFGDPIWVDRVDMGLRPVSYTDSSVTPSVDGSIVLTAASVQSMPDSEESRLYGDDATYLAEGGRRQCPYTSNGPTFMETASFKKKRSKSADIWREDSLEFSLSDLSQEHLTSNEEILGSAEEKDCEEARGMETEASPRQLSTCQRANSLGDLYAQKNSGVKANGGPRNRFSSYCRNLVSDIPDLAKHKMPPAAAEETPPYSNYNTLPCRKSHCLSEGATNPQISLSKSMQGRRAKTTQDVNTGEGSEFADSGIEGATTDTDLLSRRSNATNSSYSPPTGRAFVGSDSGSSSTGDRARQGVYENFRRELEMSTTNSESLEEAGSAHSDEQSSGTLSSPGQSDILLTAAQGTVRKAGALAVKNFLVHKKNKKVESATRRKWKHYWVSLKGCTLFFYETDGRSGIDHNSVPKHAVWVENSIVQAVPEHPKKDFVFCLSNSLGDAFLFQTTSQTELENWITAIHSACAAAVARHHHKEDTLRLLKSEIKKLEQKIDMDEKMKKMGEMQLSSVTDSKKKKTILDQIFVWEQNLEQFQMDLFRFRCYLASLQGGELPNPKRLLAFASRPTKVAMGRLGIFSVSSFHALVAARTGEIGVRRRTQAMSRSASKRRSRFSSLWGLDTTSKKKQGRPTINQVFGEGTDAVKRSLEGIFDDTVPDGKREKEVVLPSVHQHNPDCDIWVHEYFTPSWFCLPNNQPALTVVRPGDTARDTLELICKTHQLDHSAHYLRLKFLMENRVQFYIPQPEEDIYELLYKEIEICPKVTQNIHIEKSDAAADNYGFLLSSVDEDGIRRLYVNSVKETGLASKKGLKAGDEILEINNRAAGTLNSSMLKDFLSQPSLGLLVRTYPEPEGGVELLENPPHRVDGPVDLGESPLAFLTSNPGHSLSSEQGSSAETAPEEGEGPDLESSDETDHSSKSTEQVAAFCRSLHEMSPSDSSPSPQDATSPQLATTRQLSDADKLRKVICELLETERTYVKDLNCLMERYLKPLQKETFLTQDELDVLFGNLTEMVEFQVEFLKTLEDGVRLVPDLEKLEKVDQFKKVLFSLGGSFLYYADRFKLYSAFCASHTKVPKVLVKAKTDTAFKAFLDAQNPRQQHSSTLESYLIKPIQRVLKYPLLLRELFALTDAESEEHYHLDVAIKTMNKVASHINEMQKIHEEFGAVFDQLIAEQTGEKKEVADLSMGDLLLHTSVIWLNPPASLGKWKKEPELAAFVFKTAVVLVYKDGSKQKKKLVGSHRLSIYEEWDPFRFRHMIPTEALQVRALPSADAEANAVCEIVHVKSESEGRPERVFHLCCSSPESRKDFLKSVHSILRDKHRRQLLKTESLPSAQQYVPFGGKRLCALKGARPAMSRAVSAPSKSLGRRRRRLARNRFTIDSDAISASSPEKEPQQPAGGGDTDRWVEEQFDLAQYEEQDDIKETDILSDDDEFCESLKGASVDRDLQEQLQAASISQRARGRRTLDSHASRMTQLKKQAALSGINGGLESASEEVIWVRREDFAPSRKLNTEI
Tiam1-AA, full-length Tiam1 with two point mutations in the βTRCP phospho-degron, HA-tagged (Q60610, form named): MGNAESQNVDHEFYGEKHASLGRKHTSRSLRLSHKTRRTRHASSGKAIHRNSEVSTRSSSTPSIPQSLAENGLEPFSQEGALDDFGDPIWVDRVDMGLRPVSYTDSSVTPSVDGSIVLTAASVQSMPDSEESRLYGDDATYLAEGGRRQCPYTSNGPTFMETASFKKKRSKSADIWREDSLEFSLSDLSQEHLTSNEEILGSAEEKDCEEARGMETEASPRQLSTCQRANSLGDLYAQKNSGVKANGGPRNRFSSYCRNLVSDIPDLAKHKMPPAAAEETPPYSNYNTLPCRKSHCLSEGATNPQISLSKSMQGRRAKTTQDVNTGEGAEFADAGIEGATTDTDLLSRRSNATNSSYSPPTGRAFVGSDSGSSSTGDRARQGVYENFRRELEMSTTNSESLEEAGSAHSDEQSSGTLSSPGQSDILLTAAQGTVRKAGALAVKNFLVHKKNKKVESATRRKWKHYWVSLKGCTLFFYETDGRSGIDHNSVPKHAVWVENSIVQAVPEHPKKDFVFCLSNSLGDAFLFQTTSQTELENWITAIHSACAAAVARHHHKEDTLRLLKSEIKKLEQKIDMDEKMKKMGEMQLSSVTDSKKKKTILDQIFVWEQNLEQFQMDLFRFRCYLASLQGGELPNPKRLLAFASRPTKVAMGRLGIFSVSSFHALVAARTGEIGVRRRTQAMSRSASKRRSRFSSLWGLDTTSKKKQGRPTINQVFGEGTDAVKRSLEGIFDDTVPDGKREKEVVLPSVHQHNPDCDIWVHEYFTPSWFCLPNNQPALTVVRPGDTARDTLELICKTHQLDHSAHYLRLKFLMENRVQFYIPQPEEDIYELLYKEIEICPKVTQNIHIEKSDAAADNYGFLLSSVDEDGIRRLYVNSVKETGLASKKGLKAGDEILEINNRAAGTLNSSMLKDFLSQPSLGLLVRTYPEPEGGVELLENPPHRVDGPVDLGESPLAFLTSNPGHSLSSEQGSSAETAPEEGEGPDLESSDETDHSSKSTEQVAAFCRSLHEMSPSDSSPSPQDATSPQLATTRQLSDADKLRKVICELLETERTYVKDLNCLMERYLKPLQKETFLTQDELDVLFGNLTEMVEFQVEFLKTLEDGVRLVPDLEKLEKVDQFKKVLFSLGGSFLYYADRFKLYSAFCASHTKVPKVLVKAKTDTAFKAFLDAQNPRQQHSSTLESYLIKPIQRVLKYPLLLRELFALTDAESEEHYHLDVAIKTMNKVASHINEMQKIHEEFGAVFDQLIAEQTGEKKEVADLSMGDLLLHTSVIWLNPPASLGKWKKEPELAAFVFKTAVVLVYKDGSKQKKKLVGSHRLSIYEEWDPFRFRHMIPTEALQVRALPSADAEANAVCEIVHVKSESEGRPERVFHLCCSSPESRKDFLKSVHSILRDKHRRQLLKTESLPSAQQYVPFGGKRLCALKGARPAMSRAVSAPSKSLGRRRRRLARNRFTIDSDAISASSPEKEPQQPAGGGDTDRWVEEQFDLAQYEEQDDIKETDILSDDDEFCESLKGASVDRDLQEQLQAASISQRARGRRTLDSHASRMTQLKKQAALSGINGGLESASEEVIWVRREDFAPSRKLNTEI
UniProt Q9Y297: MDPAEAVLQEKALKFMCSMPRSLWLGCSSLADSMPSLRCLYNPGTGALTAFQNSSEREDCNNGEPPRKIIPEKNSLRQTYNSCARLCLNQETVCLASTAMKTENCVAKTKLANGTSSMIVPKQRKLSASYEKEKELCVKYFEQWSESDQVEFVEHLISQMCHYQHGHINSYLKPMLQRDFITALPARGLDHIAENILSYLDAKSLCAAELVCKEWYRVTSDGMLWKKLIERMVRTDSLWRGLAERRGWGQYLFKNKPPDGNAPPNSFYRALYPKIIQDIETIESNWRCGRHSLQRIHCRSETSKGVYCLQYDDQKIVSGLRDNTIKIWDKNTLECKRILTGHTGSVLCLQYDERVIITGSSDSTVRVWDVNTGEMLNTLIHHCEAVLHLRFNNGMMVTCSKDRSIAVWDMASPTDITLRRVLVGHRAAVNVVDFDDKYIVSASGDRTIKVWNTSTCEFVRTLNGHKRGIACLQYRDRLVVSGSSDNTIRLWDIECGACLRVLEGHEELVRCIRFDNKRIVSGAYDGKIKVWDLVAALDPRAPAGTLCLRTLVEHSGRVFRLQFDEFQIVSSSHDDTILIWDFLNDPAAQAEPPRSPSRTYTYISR

Assay [1] has as its target Tiam1-AA, full-length Tiam1 with two point mutations in the βTRCP phospho-degron, HA-tagged (mouse) (UniProt Q60610). Put plainly: co-IP; immunoprecipitation of HA-tagged Tiam1 constructs (doxycycline-induced) from HCT116 lysates, western blot for endogenous βTRCP; performed as described previously (Whalley et al., 2015). Background: A western blot detects proteins with antibodies after separation by electrophoresis.

Assay [2] deals with wild-type Tiam1 (mouse), HA-tagged, doxycycline-inducible (mouse) (UniProt Q60610). The description is as above.

These are yes or no findings as the source states them, for the method shown. In cells and extracts the contact can be indirect. Some results given as binding are weak or reduced against the parent protein; the word gives no strength.

For “βTRCP (F-box/WD repeat-containing protein 1A), endogenous (from UniProt Q9Y297 1-605)”, the binding result in assay [1] is “no binding”; in assay [2] it was “binds”.
